We go through three compounds from patent publication US20100069451A1, “SALT OF 3-BENZYL-2-METHYL-2,3,3A,4,5,6,7, 7A- OCTAHYDROBENZO[D]ISOXAZOL-4-ONE” (ABIOGEN PHARMA S.P.A, priority 2006, published 2010).

This data set in a line: Stability test of BTG 1640 salts under storage conditions: total impurities. In kind it is physicochemical. Particulars: time 0 (months). As to the method: Contemporaneously, the impurity analysis in the conditions a)-d) of T/% RH were carried out.
As a confirmation of such evidence, a test for the evaluation of the impurity percentage of the sample subjected to the same conditions a)-d) of T/% RH was parallely carried out. The experimental values in Table 4 were obtained.

SMILES strings stand for the structures. The source gives many values for each of these; only a part stands here.

Take `CN1OC2CCCC(=O)C2C1Cc1ccccc1.O=C(O)/C=C\C(=O)O` (stereo not drawn) [BTG 1640 maleate]: the “% impurities” value (T = 5° C.) is recorded as 0.23% and the “% impurities” value (T = 40° C., humidity 75% RH) is listed as 0.23%.

`CN1OC2CCCC(=O)C2C1Cc1ccccc1.CS(=O)(=O)O` (stereo not drawn) [BTG 1640 methanesulphonate]: the “% impurities” value worked out at 0.42% (T = 5° C.) and 0.42% (T = 40° C., humidity 75% RH).

With `CN1OC2CCCC(=O)C2C1Cc1ccccc1.O=C(O)CCC(=O)O` (stereo not drawn) [BTG 1640 succinate], the “% impurities” value runs as follows: (T = 5° C.) 0.77%; (T = 40° C., humidity 75% RH) 0.77%.
